PubChem BioAssay AID1224828, NIAID | 2016

Screen: 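Knock-downs that increase or decrease LPS-induced p65 nuclear translocation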 (primary screen)
Cell system: mouse RAW264.7 G9 macrophage reporter cells (GFP-p65, Tnf promoter-mCherry)
Reagent: siRNA pool against mouse genes, 100 nM
Time to read-out: 2 days siRNA transfection, then 40 min LPS before fixation
Conditions: LPS (Salmonella minnesota R595) at 10 ng/ml
Read-out: 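Microscopy ratio of nuclear to perinuclear-ring GFP-p65 signal, scaled to the plate median; gene score is the average of two replicate robust z-scores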
Direction: p65 translocation robust z-score: higher = more nuclear NF-kappaB p65 after LPS than the plate median; nuclear/cytoplasmic p65 ratio: higher = more nuclear NF-kappaB p65
Rule for the call: 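Called active when z exceeds 3.3 or falls under -1.56 (median of Tlr4 controls), giving activity score of at least 50; no calls for control wells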
Meaning of the calls: active = hit (p65 shift raised or lowered); inactive = no clear change
This is an unselected part of about 17,000 deposited reagents. 762 of all reagents (4.5%) were called active. 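Active calls include both raised and lowered p65 entry, mostly lowered; wells with fewer than 50 cells lack a z-score.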 Raw values are not corrected between plates. Entries without a mark were called inactive. The numbers tell different reagents against one gene apart.

target | pool no. | p65 translocation robust z-score | nuclear/cytoplasmic p65 ratio, rep 1 | nuclear/cytoplasmic p65 ratio, rep 2 | low cell count flag
Trpc3 | 1 | 0.03 | 1.51 | 1.51 | enough cells to score
Osbp2 | 1 | -0.97 | 1.32 | 1.12 | enough cells to score
Kif17 | 1 | -1.34 | 1.29 | 1.21 | enough cells to score
Gpatch3 | 1 | -0.48 | 1.54 | 1.44 | enough cells to score
Anapc15 | 1 | 1.3 | 1.41 | 1.43 | enough cells to score
Sf3a2 | 1 | – | 1.2 | 1.17 | fewer than 50 cells per well; well left out of scoring
Snd1 | 1 | 0.62 | 1.79 | 1.68 | enough cells to score
Tpx2 | 1 | – | 1.15 | 0.868 | fewer than 50 cells per well; well left out of scoring
Rnf150 | 1 | 0 | 1.39 | 1.24 | enough cells to score
Sema6b | 1 | 0.55 | 1.58 | 1.68 | enough cells to score
Abca16 | 1 | -0.31 | 1.49 | 1.71 | enough cells to score
Klhdc3 | 1 | -0.09 | 1.56 | 1.4 | enough cells to score
Dgkz | 1 | – | 1.71 | 1.35 | fewer than 50 cells per well; well left out of scoring
Prb1a | 1 | -1.39 | 1.31 | 1.38 | enough cells to score
Kif1b | 1 | – | 1.25 | 1.09 | fewer than 50 cells per well; well left out of scoring
Usp47 | 1 | 1.28 | 1.57 | 1.68 | enough cells to score
Usp47 | 2 | 0.37 | 1.48 | 1.23 | enough cells to score
Cacna1f | 1 | -0.4 | 1.59 | 1.52 | enough cells to score
Rock2 | 1 | – | – | 1.35 | fewer than 50 cells per well; well left out of scoring
Ubqln4 | 1 | -0.29 | 1.59 | 1.61 | enough cells to score
Akap10 | 1 | -0.32 | 1.62 | 1.52 | enough cells to score
Prl2a1 | 1 | -0.03 | 1.37 | 1.22 | enough cells to score
Dicer1 | 1 | – | 1.36 | 1.57 | fewer than 50 cells per well; well left out of scoring
Slc16a2 | 1 | 0.28 | 1.49 | 1.25 | enough cells to score
Rsph6a | 1 | – | 1.34 | 1.19 | fewer than 50 cells per well; well left out of scoring
Bag1 | 1 | 0.14 | 1.71 | 1.56 | enough cells to score
Or4p23 | 1 | 0.07 | 1.67 | 1.59 | enough cells to score
Pld3 | 1 | -0.74 | 1.23 | 1.18 | enough cells to score
Ebf4 | 1 | -0.71 | 1.36 | 1.28 | enough cells to score
Tm9sf2 | 1 | -0.18 | 1.34 | 1.19 | enough cells to score
Cul3 | 1 | 1.88 | 1.69 | 1.65 | enough cells to score
Elmo1 | 1 | -0.36 | 1.44 | 1.3 | enough cells to score
Atp5pf | 1 | -0.47 | – | 1.53 | enough cells to score
Slitrk6 | 1 | – | 1.64 | 1.32 | fewer than 50 cells per well; well left out of scoring
Lsm3 | 1 | -0.63 | 1.57 | 1.5 | enough cells to score
Mrps16 | 1 | 0.62 | 2.01 | 1.58 | enough cells to score
Or5b95 | 1 | 0.34 | 1.61 | 1.51 | enough cells to score
Cryz | 1 | -1.06 | 1.36 | 1.22 | enough cells to score
Tmem107 | 1 | -1.49 | 1.28 | 1.29 | enough cells to score
Mlph | 1 | 0.96 | 1.85 | 1.81 | enough cells to score

Records above whose target name begins with C or c:
target | pool no. | p65 translocation robust z-score | nuclear/cytoplasmic p65 ratio, rep 1 | nuclear/cytoplasmic p65 ratio, rep 2 | low cell count flag
Cacna1f | 1 | -0.4 | 1.59 | 1.52 | enough cells to score
Cul3 | 1 | 1.88 | 1.69 | 1.65 | enough cells to score
Cryz | 1 | -1.06 | 1.36 | 1.22 | enough cells to score
